# The list shows a part of the results.
# Amino acid sequences for entries named in this document (tags omitted). A change or cut given only in a name is not applied to a line headed by its entry.
# UniProt P19174: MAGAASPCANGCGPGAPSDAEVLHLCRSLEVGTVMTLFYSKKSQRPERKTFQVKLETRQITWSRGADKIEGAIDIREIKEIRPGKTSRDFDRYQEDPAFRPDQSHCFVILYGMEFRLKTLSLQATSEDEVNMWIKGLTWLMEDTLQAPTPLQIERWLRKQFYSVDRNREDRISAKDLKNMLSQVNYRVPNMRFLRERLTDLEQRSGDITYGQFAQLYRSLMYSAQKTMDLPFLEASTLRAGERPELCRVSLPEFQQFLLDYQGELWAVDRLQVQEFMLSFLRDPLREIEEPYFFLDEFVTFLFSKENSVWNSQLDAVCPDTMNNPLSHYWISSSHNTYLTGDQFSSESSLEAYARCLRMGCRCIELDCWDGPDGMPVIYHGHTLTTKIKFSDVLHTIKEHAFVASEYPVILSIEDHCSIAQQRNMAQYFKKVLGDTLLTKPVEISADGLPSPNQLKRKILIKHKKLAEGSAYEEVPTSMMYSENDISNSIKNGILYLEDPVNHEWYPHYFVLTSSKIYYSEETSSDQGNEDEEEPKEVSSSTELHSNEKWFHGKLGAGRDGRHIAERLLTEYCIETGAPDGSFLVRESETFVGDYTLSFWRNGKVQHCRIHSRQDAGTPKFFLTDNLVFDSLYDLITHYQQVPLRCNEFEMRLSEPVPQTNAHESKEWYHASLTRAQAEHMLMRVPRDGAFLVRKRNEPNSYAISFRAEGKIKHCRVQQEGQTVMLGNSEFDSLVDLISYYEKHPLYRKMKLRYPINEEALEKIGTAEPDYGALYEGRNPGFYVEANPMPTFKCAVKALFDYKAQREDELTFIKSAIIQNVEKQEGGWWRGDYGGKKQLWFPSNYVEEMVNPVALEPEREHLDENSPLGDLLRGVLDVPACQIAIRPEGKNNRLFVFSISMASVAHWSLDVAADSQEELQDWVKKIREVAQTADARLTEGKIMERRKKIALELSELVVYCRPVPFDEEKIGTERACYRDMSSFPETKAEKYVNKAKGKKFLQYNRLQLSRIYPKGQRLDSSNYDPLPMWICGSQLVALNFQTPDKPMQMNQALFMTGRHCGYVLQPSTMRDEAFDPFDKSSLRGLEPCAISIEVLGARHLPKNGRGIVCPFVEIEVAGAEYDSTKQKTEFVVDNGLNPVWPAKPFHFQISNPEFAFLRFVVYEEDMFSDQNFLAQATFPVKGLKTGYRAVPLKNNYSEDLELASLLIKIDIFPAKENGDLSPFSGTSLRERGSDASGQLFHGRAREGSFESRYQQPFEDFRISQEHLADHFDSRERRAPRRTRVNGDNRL
# UniProt P29590: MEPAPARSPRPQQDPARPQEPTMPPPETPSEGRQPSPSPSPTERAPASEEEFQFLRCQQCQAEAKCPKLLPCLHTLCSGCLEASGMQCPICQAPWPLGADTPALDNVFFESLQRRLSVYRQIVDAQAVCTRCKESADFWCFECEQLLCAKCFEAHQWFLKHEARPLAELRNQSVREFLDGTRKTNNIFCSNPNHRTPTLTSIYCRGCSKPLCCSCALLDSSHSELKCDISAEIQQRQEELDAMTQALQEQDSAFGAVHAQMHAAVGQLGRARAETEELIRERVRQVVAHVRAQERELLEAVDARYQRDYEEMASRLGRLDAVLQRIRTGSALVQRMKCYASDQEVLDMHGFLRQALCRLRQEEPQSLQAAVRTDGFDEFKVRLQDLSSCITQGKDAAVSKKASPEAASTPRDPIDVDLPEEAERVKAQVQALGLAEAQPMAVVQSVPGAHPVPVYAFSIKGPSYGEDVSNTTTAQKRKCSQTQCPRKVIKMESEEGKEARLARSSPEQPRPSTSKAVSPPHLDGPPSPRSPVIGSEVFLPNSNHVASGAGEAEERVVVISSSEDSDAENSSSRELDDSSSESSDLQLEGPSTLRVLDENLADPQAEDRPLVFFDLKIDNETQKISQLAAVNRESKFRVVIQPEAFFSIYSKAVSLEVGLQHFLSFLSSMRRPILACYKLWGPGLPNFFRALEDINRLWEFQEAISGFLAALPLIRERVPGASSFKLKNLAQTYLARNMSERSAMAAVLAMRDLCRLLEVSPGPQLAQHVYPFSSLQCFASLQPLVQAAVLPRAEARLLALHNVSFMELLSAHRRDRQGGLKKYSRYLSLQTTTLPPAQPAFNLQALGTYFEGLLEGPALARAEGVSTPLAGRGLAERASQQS
# UniProt P42338: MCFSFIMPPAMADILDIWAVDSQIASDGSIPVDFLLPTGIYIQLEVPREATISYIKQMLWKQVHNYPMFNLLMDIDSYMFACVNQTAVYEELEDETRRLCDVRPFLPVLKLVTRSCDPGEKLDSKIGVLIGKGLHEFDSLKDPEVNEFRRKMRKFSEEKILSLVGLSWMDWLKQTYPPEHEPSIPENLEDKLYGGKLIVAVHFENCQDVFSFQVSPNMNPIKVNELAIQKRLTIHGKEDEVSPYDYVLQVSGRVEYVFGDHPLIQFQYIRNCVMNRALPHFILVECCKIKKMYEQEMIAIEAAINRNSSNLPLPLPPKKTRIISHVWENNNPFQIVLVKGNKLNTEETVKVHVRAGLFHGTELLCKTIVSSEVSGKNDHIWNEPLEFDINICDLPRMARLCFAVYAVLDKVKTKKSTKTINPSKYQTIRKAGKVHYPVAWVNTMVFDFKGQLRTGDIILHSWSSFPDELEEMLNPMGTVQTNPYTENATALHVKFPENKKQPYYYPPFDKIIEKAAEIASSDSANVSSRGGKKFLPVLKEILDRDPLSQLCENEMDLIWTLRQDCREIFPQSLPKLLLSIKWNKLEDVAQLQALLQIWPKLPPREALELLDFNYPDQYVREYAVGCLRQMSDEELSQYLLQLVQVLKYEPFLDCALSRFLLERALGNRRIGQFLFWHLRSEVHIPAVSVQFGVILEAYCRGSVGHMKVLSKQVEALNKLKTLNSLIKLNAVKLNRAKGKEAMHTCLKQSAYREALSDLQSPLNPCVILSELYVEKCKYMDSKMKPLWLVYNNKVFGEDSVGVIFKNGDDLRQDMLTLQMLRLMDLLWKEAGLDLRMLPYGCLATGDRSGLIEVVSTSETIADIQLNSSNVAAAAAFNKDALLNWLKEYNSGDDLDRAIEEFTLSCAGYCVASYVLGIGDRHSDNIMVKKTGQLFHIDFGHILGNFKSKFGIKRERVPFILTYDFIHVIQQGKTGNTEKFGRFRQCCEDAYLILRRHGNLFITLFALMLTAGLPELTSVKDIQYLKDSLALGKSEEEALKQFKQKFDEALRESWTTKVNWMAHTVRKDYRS
# UniProt P54277: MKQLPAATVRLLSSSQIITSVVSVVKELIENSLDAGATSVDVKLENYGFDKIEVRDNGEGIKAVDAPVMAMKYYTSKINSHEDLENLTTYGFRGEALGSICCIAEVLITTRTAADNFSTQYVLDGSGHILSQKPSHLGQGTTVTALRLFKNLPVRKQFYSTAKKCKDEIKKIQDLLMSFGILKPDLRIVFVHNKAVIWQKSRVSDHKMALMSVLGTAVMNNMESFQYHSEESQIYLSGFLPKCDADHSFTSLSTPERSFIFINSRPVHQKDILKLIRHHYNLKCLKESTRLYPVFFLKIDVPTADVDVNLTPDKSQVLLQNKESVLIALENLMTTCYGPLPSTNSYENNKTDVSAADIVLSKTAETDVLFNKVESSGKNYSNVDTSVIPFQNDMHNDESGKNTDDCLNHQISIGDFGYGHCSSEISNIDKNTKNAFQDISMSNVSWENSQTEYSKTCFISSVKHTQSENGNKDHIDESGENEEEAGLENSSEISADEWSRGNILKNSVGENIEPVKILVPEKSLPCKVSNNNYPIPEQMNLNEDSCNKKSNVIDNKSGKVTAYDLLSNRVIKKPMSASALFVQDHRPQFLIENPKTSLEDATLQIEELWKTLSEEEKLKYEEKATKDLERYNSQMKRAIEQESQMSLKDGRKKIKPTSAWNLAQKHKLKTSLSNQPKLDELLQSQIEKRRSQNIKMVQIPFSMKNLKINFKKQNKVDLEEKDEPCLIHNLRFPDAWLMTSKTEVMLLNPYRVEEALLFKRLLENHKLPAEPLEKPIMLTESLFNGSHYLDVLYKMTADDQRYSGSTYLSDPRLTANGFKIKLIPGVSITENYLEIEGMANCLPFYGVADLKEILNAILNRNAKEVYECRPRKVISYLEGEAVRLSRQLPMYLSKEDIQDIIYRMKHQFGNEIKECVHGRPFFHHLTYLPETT
# UniProt Q9UPR0: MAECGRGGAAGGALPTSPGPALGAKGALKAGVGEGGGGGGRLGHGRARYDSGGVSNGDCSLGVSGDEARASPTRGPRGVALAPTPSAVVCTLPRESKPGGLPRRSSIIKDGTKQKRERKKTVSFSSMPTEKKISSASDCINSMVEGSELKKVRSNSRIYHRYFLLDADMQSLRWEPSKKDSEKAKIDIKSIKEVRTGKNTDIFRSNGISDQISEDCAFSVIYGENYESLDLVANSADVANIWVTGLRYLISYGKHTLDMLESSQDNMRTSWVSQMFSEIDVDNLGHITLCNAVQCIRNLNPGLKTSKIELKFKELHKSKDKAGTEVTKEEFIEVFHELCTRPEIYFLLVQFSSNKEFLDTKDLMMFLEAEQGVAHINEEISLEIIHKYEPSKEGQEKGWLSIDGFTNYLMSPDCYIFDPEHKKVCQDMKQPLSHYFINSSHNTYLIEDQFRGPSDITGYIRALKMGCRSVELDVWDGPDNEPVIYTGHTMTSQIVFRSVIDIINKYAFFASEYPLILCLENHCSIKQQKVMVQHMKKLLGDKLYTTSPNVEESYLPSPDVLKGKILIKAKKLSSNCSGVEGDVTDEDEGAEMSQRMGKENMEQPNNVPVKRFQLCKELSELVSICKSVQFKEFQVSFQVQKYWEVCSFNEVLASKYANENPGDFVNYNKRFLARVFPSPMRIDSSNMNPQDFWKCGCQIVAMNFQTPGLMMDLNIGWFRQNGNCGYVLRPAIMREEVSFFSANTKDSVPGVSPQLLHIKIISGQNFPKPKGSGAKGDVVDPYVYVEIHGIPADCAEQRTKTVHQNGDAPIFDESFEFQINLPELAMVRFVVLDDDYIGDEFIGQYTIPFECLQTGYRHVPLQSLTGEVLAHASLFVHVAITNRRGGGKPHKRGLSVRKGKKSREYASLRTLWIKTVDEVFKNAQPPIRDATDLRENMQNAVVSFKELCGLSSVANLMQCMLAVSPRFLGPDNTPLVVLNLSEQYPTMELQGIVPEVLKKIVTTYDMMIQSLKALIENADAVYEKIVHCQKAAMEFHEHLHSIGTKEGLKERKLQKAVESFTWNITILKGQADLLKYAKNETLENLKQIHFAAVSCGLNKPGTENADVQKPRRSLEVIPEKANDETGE
# UniProt Q9Y263: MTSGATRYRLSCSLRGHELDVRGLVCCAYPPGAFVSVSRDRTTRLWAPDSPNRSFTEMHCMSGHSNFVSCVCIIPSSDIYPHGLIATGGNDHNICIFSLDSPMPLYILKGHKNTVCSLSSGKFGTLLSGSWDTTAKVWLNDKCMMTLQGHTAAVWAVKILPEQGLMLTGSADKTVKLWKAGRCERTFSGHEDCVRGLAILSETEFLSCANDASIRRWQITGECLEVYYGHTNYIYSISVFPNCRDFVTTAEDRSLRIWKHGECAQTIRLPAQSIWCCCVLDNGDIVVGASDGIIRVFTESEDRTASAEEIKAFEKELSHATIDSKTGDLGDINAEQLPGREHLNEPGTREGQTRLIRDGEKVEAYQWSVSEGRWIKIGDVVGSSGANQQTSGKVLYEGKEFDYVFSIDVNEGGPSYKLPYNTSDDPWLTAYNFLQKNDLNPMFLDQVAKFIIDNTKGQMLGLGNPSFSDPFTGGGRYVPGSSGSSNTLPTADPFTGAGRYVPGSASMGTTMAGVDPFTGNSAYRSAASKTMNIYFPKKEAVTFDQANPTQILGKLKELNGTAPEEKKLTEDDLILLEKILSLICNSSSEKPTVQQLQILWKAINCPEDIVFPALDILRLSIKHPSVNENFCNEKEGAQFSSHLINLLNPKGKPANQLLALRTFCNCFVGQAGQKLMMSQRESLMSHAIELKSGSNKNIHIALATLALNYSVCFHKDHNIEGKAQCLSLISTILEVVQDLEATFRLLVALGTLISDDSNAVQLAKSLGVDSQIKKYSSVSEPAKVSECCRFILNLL
# UniProt Q13526, whole entry, looked up: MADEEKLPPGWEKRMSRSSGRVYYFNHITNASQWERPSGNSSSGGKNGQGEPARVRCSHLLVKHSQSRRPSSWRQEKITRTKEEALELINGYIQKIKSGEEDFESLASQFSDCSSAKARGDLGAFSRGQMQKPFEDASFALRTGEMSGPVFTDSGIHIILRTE
# UniProt Q96CS7: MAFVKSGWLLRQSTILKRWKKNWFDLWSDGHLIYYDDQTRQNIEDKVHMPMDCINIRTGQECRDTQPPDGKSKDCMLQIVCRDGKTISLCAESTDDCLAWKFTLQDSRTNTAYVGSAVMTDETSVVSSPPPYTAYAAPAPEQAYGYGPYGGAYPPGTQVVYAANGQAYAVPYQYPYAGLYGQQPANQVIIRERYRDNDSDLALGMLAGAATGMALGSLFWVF
# Compound: CC1Cc2ccccc2N1C(=O)C1CCCN(C1)C(=O)CCl (mixture of isomers) [TRIM25 ligand 11 (diastereomer mixture)]
# Experiment: probe-labelled cysteine peptide fold change vs DMSO (competition) (log2 fold change); higher = less target engagement (more negative = stronger competition)
# Conditions: THP-1, incubation time: 4 h
# 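Further: competitive chemoproteomic profiling in live THP-1 cells with an iodoacetamide desthiobiotin (IA-DTB) probe, comparing probe-labelled peptide intensities in compound-treated cells against DMSO-treated controls.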
Target,probe-labelled cysteine peptide fold change (10 µM),probe-labelled cysteine peptide fold change (50 µM)
PLBD2_Q8NHP8_244_IKPSLGSGSCSALIK (UniProt Q8NHP8),-0.0872,-0.441
PLXNB2_O15031_637_WTCQWDLR (UniProt O15031),-0.109,0.0373
PITRM1_Q5JRX3_477_QCLQENPK (UniProt Q5JRX3),-0.165,0.0295
PLCB3_Q01970_360_CVELDVWK (UniProt Q01970),0.000957,0.159
PLEKHO2_Q8TD55_135_SCALEHVTR (UniProt Q8TD55),-0.101,-0.194
PLCG1_P19174_12_AGAASPCANGCGPGAPSDAEVLHLCR (UniProt P19174),-0.258,-0.148
PLPBP_O94903_86_ILSLCPEIK (UniProt O94903),-0.141,0.0653
PML_P29590_189_KTNNIFCSNPNHR (UniProt P29590),-0.0392,-0.137
PLCB3_Q01970_358_QALLWGCR (UniProt Q01970),0.105,0.0907
PIK3CB_P42338_287_ALPHFILVECCK (UniProt P42338),-0.0516,-0.0501
PLEC_Q15149_950_GRLPLLAVCDYK (UniProt Q15149),-0.185,0.0516
PKN1_Q16512_662_DEVESLMCEK (UniProt Q16512),0.16,0.0355
PLD3_Q8IV08_487_SQLEAIFLRDWDSPYSHDLDTSADSVGNACR (UniProt Q8IV08),-0.137,-0.248
PLEC_Q15149_3336_CRPDQLTGLSLLPLSEK (UniProt Q15149),-0.00331,-0.146
PLCG1_P19174_960_IALELSELVVYCR (UniProt P19174),0.103,0.1
PLEC_Q15149_3110_LCFEGLR (UniProt Q15149),-0.267,-0.465
PLIN3_O60664_60_TVCDAAEK (UniProt O60664),0.00363,0.041
PLCG1_P19174_247_AGERPELCR (UniProt P19174),-0.192,-0.254
PLEC_Q15149_545_LQMEAGLCEEQLNQADALLQSDVR (UniProt Q15149),0.123,0.0152
PLXNB2_O15031_489_DSQDPYCGWCVVEGR (UniProt O15031),-0.075,0.029
PIK3R4_Q99570_955_REQCNAER (UniProt Q99570),-0.00312,-0.0264
PMS1_P54277_725_DEPCLIHNLR (UniProt P54277),-0.0476,-0.111

# Record cards, as listed above.
# PLXNB2_O15031_637_WTCQWDLR (UniProt O15031) as listed: probe-labelled cysteine peptide fold change (10 µM): -0.109; probe-labelled cysteine peptide fold change (50 µM): 0.0373
# PLCG1_P19174_12_AGAASPCANGCGPGAPSDAEVLHLCR (UniProt P19174) as listed: probe-labelled cysteine peptide fold change (10 µM): -0.258; probe-labelled cysteine peptide fold change (50 µM): -0.148

# More records.

Target,probe-labelled cysteine peptide fold change (10 µM),probe-labelled cysteine peptide fold change (50 µM)
PLCG2_P16885_791_RSDELSFCR (UniProt P16885),-0.131,0.0263
PLEKHA2_Q9HB19_81_TPFCFVINALSQR (UniProt Q9HB19),0.0911,0.0643
PLEC_Q15149_3493_TLLQGSGCLAGIYLEDTK (UniProt Q15149),0.241,0.0674
PIKFYVE_Q9Y2I7_1677_EPSSIIAFALSCK (UniProt Q9Y2I7),-0.0654,-0.176
PIK3CG_P48736_817_CADPTALSNETIGIIFK (UniProt P48736),0.0459,0.0517
PLBD2_Q8NHP8_342_GCVLEWVR (UniProt Q8NHP8),-0.312,-0.00984
PLCL2_Q9UPR0_414_GWLSIDGFTNYLMSPDCYIFDPEHKK (UniProt Q9UPR0),0.11,-0.056
PKN1_Q16512_317_LAGPFPATHYSTLCK (UniProt Q16512),0.165,-0.214
PLAA_Q9Y263_263_HGECAQTIR (UniProt Q9Y263),0.0854,0.44
PNPLA6_Q8IY17_418_CVSMPGDISGLQGGPR (UniProt Q8IY17),-0.113,-0.0549
PLEC_Q15149_317_CDNFTSSWR (UniProt Q15149),0.0602,0.256
PIP5K1C_O60331_306_DCLVLESFK (UniProt O60331),0.0441,0.118
PLXNB2_O15031_948_FGAQLQCVTGPQATR (UniProt O15031),0.149,0.0289
PIK3CD_O00329_416_ADCPIAWANLMLFDYK (UniProt O00329),0.261,-0.29
PLIN3_O60664_39_VASMPLISSTCDMVSAAYASTK (UniProt O60664),-0.0047,0.0556
PMS1_P54277_915_ECVHGR (UniProt P54277),0.328,0.196
PLCB2_Q00722_296_GQLSPEGMVWFLCGPENSVLAQDK (UniProt Q00722),0.0529,0.0248
PML_P29590_189_TNNIFCSNPNHR (UniProt P29590),-0.0305,-0.159
PLCB2_Q00722_1169_ACECPPELCEQDPLIAK (UniProt Q00722),0.0923,-0.538
PMM1_Q92871_145_SCTLEER (UniProt Q92871),0.143,0.196
PLRG1_O43660_338_CQAAEPQIITGSHDTTIR (UniProt O43660),0.0435,0.283
PIK3CD_O00329_90_RLCDVQPFLPVLR (UniProt O00329),-0.062,0.226

Target,probe-labelled cysteine peptide fold change (10 µM),probe-labelled cysteine peptide fold change (50 µM)
PIK3C3_Q8NEB9_336_CVNWDLPQEAK (UniProt Q8NEB9),0.0288,-0.089
PKN1_Q16512_469_HEVQLDMEPQGCLVAEVTFR (UniProt Q16512),-0.0844,0.0973
PIN1_Q13526_113_SGEEDFESLASQFSDCSSAK (UniProt Q13526),-0.166,-0.217
PLEKHG4_Q58EX7_917_HGNDLLAMDAIQGCDVNLK (UniProt Q58EX7),0.0117,-0.137
PLEKHB2_Q96CS7_75_DCMLQIVCR (UniProt Q96CS7),0.262,0.396
PKM_P14618_326_PVICATQMLESMIK (UniProt P14618),-0.0487,-0.0738
PLAA_Q9Y263_208_GLAILSETEFLSCANDASIRR (UniProt Q9Y263),-0.0869,-0.00897
PML_P29590_143_ESADFWCFECEQLLCAK (UniProt P29590),0.0255,0.124
PLS3_P13797_33_VDLNSNGFICDYELHELFK (UniProt P13797),0.103,0.0703
PLA2G15_Q8NCC3_371_SALQCQAWQSR (UniProt Q8NCC3),0.0679,0.0975
PMPCB_O75439_389_LCTSVTESEVAR (UniProt O75439),0.204,0.199
PMPCA_Q10713_225_FCPTENVAK (UniProt Q10713),0.0792,0.0898
PLXNB2_O15031_937_VTLNGVPCK (UniProt O15031),0.0926,0.112
PLEC_Q15149_530_SEFERLECLQR (UniProt Q15149),-0.161,-0.218
PIK3R1_P27986_167_QLLDCDTPSVDLEMIDVHVLADAFKR (UniProt P27986),0.0342,-0.148
PKM_P14618_31_SKPHSEAGTAFIQTQQLHAAMADTFLEHMCR (UniProt P14618),-0.0647,-0.0332
PIK3CB_P42338_116_SCDPGEK (UniProt P42338),-0.0422,-0.082
PLCB3_Q01970_1176_LLAQLAQECQEQR (UniProt Q01970),0.234,-0.0169
PLEC_Q15149_1136_LQLEACETR (UniProt Q15149),-0.0517,0.0738
PLEKHF1_Q96S99_129_QEWISHIEECVR (UniProt Q96S99),0.139,0.265
PLXNB2_O15031_1504+1506_GQPCSCWPRPDSVVLEWRPGSTAQILSDLDLTSQR (UniProt O15031),0.212,0.152
PNKP_Q96T60_447_CFLFTATLEQAR (UniProt Q96T60),-0.17,-0.00408

# Pulled one by one from the entries so far, 3 records:
Target,probe-labelled cysteine peptide fold change (10 µM),probe-labelled cysteine peptide fold change (50 µM)
PLEKHB2_Q96CS7_75_DCMLQIVCR (UniProt Q96CS7),0.262,0.396
PLXNB2_O15031_937_VTLNGVPCK (UniProt O15031),0.0926,0.112
PIN1_Q13526_113_SGEEDFESLASQFSDCSSAK (UniProt Q13526),-0.166,-0.217

# (list continues)

Target,probe-labelled cysteine peptide fold change (10 µM),probe-labelled cysteine peptide fold change (50 µM)
PLCG2_P16885_849_QIIEDNPLGSLCR (UniProt P16885),-0.0232,0.105
PLXNB2_O15031_364_SFPCGSEHLPYPLGSR (UniProt O15031),-0.00656,0.0757
PLD3_Q8IV08_366_LLISCWGHSEPSMR (UniProt Q8IV08),-0.0913,0.0956
PLSCR1_O15162_254_SLDEQCVVGK (UniProt O15162),0.226,0.125
PIK3CA_P42336_215_INHDCVPEQVIAEAIR (UniProt P42336),0.117,0.0805
PLCL2_Q9UPR0_794_GDVVDPYVYVEIHGIPADCAEQR (UniProt Q9UPR0),-0.0541,-0.112
PITRM1_Q5JRX3_869_THFLMPFPVNYVGECIR (UniProt Q5JRX3),-0.05,0.0338
PM20D2_Q8IYS1_14_MRPGGERPVEGGACNGR (UniProt Q8IYS1),-0.0138,-0.0287
PLEC_Q15149_3295_VPLDVACAR (UniProt Q15149),0.0179,-0.124
PLEKHA3_Q9HB20_216_SVSHPGSCSSER (UniProt Q9HB20),0.096,-0.186
PIK3CD_O00329_355_LVVQAGLFHGNEMLCK (UniProt O00329),-0.164,0.0896
PLIN2_Q99541_302_SIGYDDTDESHCAEHIESR (UniProt Q99541),0.0383,0.147
PIP4P1_Q86T03_177_VICGHCK (UniProt Q86T03),-0.00656,0.0984
PLA2G4A_P47712_726_CSVSLSNVEAR (UniProt P47712),-0.121,-0.121
PKN1_Q16512_662_KGDIVARDEVESLMCEK (UniProt Q16512),-0.0633,0.00513
PKM_P14618_423_CCSGAIIVLTK (UniProt P14618),0.0476,0.0123
PLXND1_Q9Y4D7_345_KLTESYIQLGLQCAGGAGR (UniProt Q9Y4D7),-0.0112,0.124
PLEC_Q15149_3667_CVEDPETGLR (UniProt Q15149),0.0186,0.0799
PKN1_Q16512_120_LDLLHQQLQELHAHVVLPDPAATHDGPQSPGAGGPTCSATNLSR (UniProt Q16512),-0.00381,-0.137

# — the supplement of paper PMC12067093, “Discovery and optimisation of a covalent ligand for TRIM25 and its application to targeted protein ubiquitination” (Chemical Science, 2025)
